Data source: PubChem BioAssay AID1259254 (NCATS, 2017)
The whole screen tested about 59,000 reagents; shown is a part drawn at random. About 1,550 of them (2.6%) count as active. 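G2 share is only a proxy for re-replication; each gene was hit by three separate siRNAs, and active genes were retested.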 Raw values vary from plate to plate and are shown uncorrected. The numbers tell different reagents against one gene apart. The record does not give: the amount of reagent.

Screen: 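Gene knock-downs that lead to re-replication, shown by excess G2 DNA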 (primary screen)
Cell system: human HCT116 colorectal cancer cells
Reagents: single siRNA against human genes
Duration: 3 days
Measured: 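Imaged Hoechst DNA stain sorts each cell into a cycle phase by DNA amount; per plate, G2 fraction set to 0% for non-targeting and 100% for GMNN siRNA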
Direction: G2 robust z-score and G2 cells, % of GMNN control: higher = more G2 cells, more excess DNA replication; raw share of cells in G2: higher = larger share of cells with G2 DNA content
Rule for the call: 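An siRNA counts as active if its G2 robust z-score lies at least 5 MADs above the screen median; here such calls match roughly 38% of GMNN control or more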

gene symbol	siRNA no.	G2 robust z-score	G2 cells, % of GMNN control	raw share of cells in G2 (%)	Call
DHX58 (DExH-box helicase 58)	1	-0.625	-1.43	3.7	inactive
DHX58 (DExH-box helicase 58)	2	1.11	10.8	10.1	inactive
DHX58 (DExH-box helicase 58)	3	0.21	4.45	5.92	inactive
EIF2B2 (eukaryotic translation initiation factor 2B subunit beta)	1	0.7	7.89	8.12	inactive
EIF2B2 (eukaryotic translation initiation factor 2B subunit beta)	2	3.28	26	14	inactive
EIF2B2 (eukaryotic translation initiation factor 2B subunit beta)	3	-0.18	1.7	5.86	inactive
SF3B1 (splicing factor 3b subunit 1)	1	4.08	31.6	19.1	inactive
SF3B1 (splicing factor 3b subunit 1)	2	7.55	56.1	22.9	active
SF3B1 (splicing factor 3b subunit 1)	3	1.77	15.4	9.15	inactive
MXD3 (MAX dimerization protein 3)	1	-0.594	-1.21	3.25	inactive
MXD3 (MAX dimerization protein 3)	2	-0.423	-0.00531	2.79	inactive
MXD3 (MAX dimerization protein 3)	3	-0.33	0.647	6.2	inactive
MAB21L3 (mab-21 like 3)	1	0.183	4.25	5.78	inactive
MAB21L3 (mab-21 like 3)	2	2.09	17.7	8.71	inactive
MAB21L3 (mab-21 like 3)	3	-0.658	-1.66	1.98	inactive
UBE2HP1 (ubiquitin conjugating enzyme E2 H pseudogene 1)	1	-0.228	1.37	3.48	inactive
UBE2HP1 (ubiquitin conjugating enzyme E2 H pseudogene 1)	2	0.901	9.31	7.29	inactive
UBE2HP1 (ubiquitin conjugating enzyme E2 H pseudogene 1)	3	1.02	10.2	6.99	inactive
STON2 (stonin 2)	1	5.36	40.7	21.3	active
STON2 (stonin 2)	2	-0.198	1.57	3.49	inactive
STON2 (stonin 2)	3	0.476	6.32	4.93	inactive
STOML3 (stomatin like 3)	1	4.05	31.4	16.2	inactive
STOML3 (stomatin like 3)	2	0.551	6.84	7.58	inactive
STOML3 (stomatin like 3)	3	-0.517	-0.667	5.64	inactive
GATB (glutamyl-tRNA amidotransferase subunit B)	1	1.74	15.2	9.74	inactive
GATB (glutamyl-tRNA amidotransferase subunit B)	2	0.746	8.21	6.78	inactive
GATB (glutamyl-tRNA amidotransferase subunit B)	3	-0.861	-3.09	2.57	inactive
SMIM22 (small integral membrane protein 22)	1	3.26	25.9	13.6	inactive
SMIM22 (small integral membrane protein 22)	2	0.906	9.34	6.96	inactive
SMIM22 (small integral membrane protein 22)	3	-0.924	-3.53	1.92	inactive
PROKR2 (prokineticin receptor 2)	1	-1.28	-6.07	3.67	inactive
PROKR2 (prokineticin receptor 2)	2	0.676	7.73	7.22	inactive
PROKR2 (prokineticin receptor 2)	3	1.68	14.8	7.8	inactive
CTBS (chitobiase)	1	-1.05	-4.45	2.56	inactive
CTBS (chitobiase)	2	-0.144	1.95	5.66	inactive
CTBS (chitobiase)	3	3.76	29.4	15.7	inactive
LRRFIP2 (LRR binding FLII interacting protein 2)	1	0.834	8.84	9.05	inactive
LRRFIP2 (LRR binding FLII interacting protein 2)	2	3.32	26.3	14.3	inactive
LRRFIP2 (LRR binding FLII interacting protein 2)	3	-0.0342	2.73	4.31	inactive
LETM2	1	-0.343	0.551	4.38	inactive
LETM2	2	1.63	14.4	7.68	inactive
LETM2	3	-0.741	-2.25	1.76	inactive
FLJ32154 (retired record)	1	-0.588	-1.17	3.44	inactive
FLJ32154 (retired record)	2	-0.525	-0.728	2.69	inactive
FLJ32154 (retired record)	3	-0.62	-1.4	2.58	inactive
ASXL1 (ASXL transcriptional regulator 1)	1	1.46	13.3	8.35	inactive
ASXL1 (ASXL transcriptional regulator 1)	2	1.49	13.4	7.46	inactive
ASXL1 (ASXL transcriptional regulator 1)	3	-0.323	0.695	2.98	inactive
NFKBIE (NFKB inhibitor epsilon)	1	-0.127	2.08	6.29	inactive
NFKBIE (NFKB inhibitor epsilon)	2	-0.934	-3.61	2.01	inactive
NFKBIE (NFKB inhibitor epsilon)	3	-0.291	0.923	5.72	inactive
GALNT5 (polypeptide N-acetylgalactosaminyltransferase 5)	1	1.15	11	7.85	inactive
GALNT5 (polypeptide N-acetylgalactosaminyltransferase 5)	2	3.35	26.5	17	inactive
GALNT5 (polypeptide N-acetylgalactosaminyltransferase 5)	3	-0.185	1.67	4.44	inactive
MOB3A (MOB kinase activator 3A)	1	1.22	11.5	9.92	inactive
MOB3A (MOB kinase activator 3A)	2	-0.344	0.549	5.93	inactive
MOB3A (MOB kinase activator 3A)	3	-0.196	1.59	5.08	inactive
DCAF13 (DDB1 and CUL4 associated factor 13)	1	3.42	27	14.6	inactive
DCAF13 (DDB1 and CUL4 associated factor 13)	2	1.31	12.2	9.22	inactive
DCAF13 (DDB1 and CUL4 associated factor 13)	3	0.255	4.76	4.96	inactive
OR1D2 (olfactory receptor family 1 subfamily D member 2)	1	0.719	8.02	8.39	inactive
OR1D2 (olfactory receptor family 1 subfamily D member 2)	2	-0.527	-0.742	3.93	inactive
OR1D2 (olfactory receptor family 1 subfamily D member 2)	3	2.35	19.5	10.4	inactive
PKDREJ (polycystin family receptor for egg jelly)	1	3.71	29.1	15.9	inactive
PKDREJ (polycystin family receptor for egg jelly)	2	-0.146	1.94	5.44	inactive
PKDREJ (polycystin family receptor for egg jelly)	3	-1.03	-4.26	2.71	inactive
GALNTL5 (polypeptide N-acetylgalactosaminyltransferase like 5)	1	-0.414	0.0541	4.72	inactive
GALNTL5 (polypeptide N-acetylgalactosaminyltransferase like 5)	2	-0.325	0.684	6.28	inactive
GALNTL5 (polypeptide N-acetylgalactosaminyltransferase like 5)	3	-0.272	1.05	5.14	inactive

5 entries already listed, sorted by “G2 robust z-score”, highest first:
gene symbol	siRNA no.	G2 robust z-score	G2 cells, % of GMNN control	raw share of cells in G2 (%)	Call
CTBS (chitobiase)	3	3.76	29.4	15.7	inactive
LRRFIP2 (LRR binding FLII interacting protein 2)	2	3.32	26.3	14.3	inactive
LRRFIP2 (LRR binding FLII interacting protein 2)	1	0.834	8.84	9.05	inactive
LRRFIP2 (LRR binding FLII interacting protein 2)	3	-0.0342	2.73	4.31	inactive
CTBS (chitobiase)	2	-0.144	1.95	5.66	inactive
